Library screening results

The chains behind the UniProt entries cited, without tags or fusion partners.
UniProt E9BF75, entry or part of it: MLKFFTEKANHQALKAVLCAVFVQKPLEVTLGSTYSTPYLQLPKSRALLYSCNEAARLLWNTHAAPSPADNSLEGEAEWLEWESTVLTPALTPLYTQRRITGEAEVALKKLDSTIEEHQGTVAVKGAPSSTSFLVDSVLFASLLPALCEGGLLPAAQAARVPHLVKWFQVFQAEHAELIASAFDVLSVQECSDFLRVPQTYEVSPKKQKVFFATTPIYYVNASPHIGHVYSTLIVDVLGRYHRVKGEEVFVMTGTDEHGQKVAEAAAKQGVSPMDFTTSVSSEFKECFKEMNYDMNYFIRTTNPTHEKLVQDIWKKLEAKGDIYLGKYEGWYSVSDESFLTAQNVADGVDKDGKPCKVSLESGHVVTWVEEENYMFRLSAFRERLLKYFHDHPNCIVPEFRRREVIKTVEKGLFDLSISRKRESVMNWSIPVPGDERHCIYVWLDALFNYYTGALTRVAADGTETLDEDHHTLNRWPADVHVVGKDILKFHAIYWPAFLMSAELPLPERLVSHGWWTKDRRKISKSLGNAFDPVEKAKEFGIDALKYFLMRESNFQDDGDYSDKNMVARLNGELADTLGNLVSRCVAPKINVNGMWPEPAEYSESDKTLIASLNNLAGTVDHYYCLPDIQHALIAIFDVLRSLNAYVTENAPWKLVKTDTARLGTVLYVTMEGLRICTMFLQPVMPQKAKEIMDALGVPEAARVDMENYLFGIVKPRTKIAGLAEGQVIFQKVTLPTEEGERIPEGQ

A: 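Assay on Mycobacterium tuberculosis, filed only as a heat shock assay from Cornell; the read-out is not stated. The concentration is filed as 10 mM, unlikely as a test dose, so the dose is not known. The record gives no direction; compounds that gave an IC50 in retests scored well above the rest, so higher reads as stronger inhibition. About 69,000 compounds were tested under these conditions; 1.4% (about 930) showed 50% or more at least once.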
B: 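Methionyl-tRNA synthetase (putative), Leishmania donovani (UniProt E9BF75). Primary screen of methionyl-tRNA synthetase; the read-out is not stated. The test concentration is not given. The values are filed as inhibition. Of about 68,000 compounds tested this way, about 24 (0.035%) reached 50% or more in at least one test.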
C: 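Whole-cell assay for inhibitors of Mycobacterium tuberculosis growth, labelled Cornell in the record; the read-out is not stated. The concentration is filed as 10 mM, unlikely as a test dose, so the dose is not known. Higher means stronger inhibition (inferred from two other growth screens of the library). Size under these conditions: about 53,000 compounds, about 900 of them at 50% or above in at least one test.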

All values are in %. The record does not define 0% and 100%; most values in the screen are far below 50% and negative numbers occur (in some assays of this library far below -100). The compounds are a random part of those screened. A dash means the value is not listed here; it may have been measured.

compound	A	B	C
CN1CCCN(c2nccc(-c3c[nH]c4ccc(Br)cc34)n2)CC1	19.92	16.26	8.461
CCOCCCNC(=O)c1cc(C)nc(N2CCCC2)n1	-2.167	9.544	-
O=C(O)C(F)(F)F.[H][C@]12CCCN(Cc3ccc(OC)cc3)[C@@]1([H])CN(C(=O)c1ccco1)C2	-5.706	-	-23.12
Cc1cc(N2CCCC(OC(=O)CCc3cnn(C)c3)C2)nc(C)n1 (stereo not drawn)	-5.545	14.25	6.805
O=C(c1cscn1)N1CCC2(CCN(Cc3cccs3)CC2)C1	-	12.46	-
Cn1cc(C(=O)N2CCCC(c3cc(O)n(C)n3)C2)cn1 (stereo not drawn)	10.91	8.333	-17.84
Cc1ccc(C2CSCCN2C(=O)c2cccs2)o1 (stereo not drawn)	-13.86	7.914	-1.514
Cc1cc(CN(C)C(=O)C(c2ccccc2F)N(C)C)ccn1 (stereo not drawn)	7.216	10.74	-59.3
CN(C)C(=O)COCC1CN(S(C)(=O)=O)Cc2ncn(C)c21 (stereo not drawn)	-	8.629	-
CC(C)c1nnc(CN2CCC3(CC2)Nc2ccccc2NC3=O)o1	-9.355	-1.748	-23.68
COc1cc(N2C[C@H]3CCC[C@@H](CN4CCOCC4)[C@H]3C2)ncn1	-	0	-
COCCC1(C(=O)O)CCCN(Cc2cc3c(cc2C)OCO3)C1 (stereo not drawn)	15.56	12.63	21.86
CN1C(=O)CCC12CCCN(C(=O)c1ccncc1F)C2.O=C(O)C(F)(F)F (stereo not drawn)	38.17	-	-24.67
Cc1cc(C(=O)N2CC[C@H](N3CCOCC3)[C@H](CCCO)C2)c(C)n1C	14.47	9.589	9.196
CCN(C(C)=O)c1nc(CN2CCN(c3nccs3)CC2)cs1	-24.26	3.17	12.83
Clc1cccc(OCCCN2CCOC(Cn3cncn3)C2)c1 (stereo not drawn)	-5.567	11.4	8.278
c1cnnc(N2CCCC2CNCc2ccsc2)c1 (stereo not drawn)	-10.29	11.04	-0.7342
CN(C)Cc1ccnc(C2CCCN2Cc2cc[nH]n2)n1 (stereo not drawn)	1.515	3.767	-8.229
COc1ccc(C[C@H]2CNCC[C@@H]2OC)cc1.O=C(O)C(F)(F)F	-3.146	-	4.76
CC(CN1CCOCC1)NC(=O)c1cc(Cl)c2c(c1)OCO2 (stereo not drawn)	-3.009	-5.211	-10.99
CCc1nnc2n1CCN(C(=O)c1ccnc(N(C)C)c1)C2	-3.201	9.036	-
Cc1cccc(CN2CCCC3(CCN(CC(=O)N(C)C)C3=O)C2)n1 (stereo not drawn)	-	3.297	-
CN(C)C(=O)N1Cc2ccccc2C2(CCNCC2)C1	-	4.444	-
CC(C)S(=O)(=O)NCc1cccnc1Oc1ccc(F)cc1F	-14.32	2.133	-
Cc1cnc(NC(=O)CSC2CCc3ccccc3NC2=O)s1 (stereo not drawn)	3.218	20.49	0.629
O=C(Cn1cc(I)cn1)N1CCNC1=O	3.135	19.2	0.03856
Clc1ccc(CN2CCCC(Cn3cncn3)C2)c2ncccc12 (stereo not drawn)	6.491	18.9	-57.39
CCCC1C=CCN1C(=O)c1cc(COc2ccccc2)[nH]n1 (stereo not drawn)	6.443	13.84	-
CS(=O)(=O)N[C@H]1CN(C(=O)CCc2ccco2)C[C@@H]1C1CC1	17.01	6.597	-10.19
O=C(Cc1cccc(F)c1)NCCNS(=O)(=O)C1CCCC1	11.84	13.44	2.469
COc1ccc(C2CC(=O)Oc3cc(C)[nH]c(=O)c32)cc1O (stereo not drawn)	13.63	16.38	10.62
c1ccc(-c2nc(CN3CCOC(Cn4cccn4)C3)co2)cc1 (stereo not drawn)	-19.17	10.83	-0.4941
CCCc1nc(CN2CCCC(c3noc(C4CC4)n3)C2)no1 (stereo not drawn)	-1.054	3.374	-
Cc1nc(N2CCC3(CCCN(C(C)C)C3=O)C2)c2sccc2n1 (stereo not drawn)	1.809	15.14	15.74
O=C(NC[C@@H]1C[C@@H]2CN(C(=O)CO)C[C@H]2O1)c1ccsc1	-	3.636	-
COc1cnc(N2CCC(Oc3ccccc3OC)(C(=O)O)CC2)nc1	-16.43	19.5	10.43
Cc1cc(C(=O)N2CCCN(c3nccs3)CC2)c(C)n1C(C)C	-9.048	1.609	-19.78
CN1CC(C(=O)N(C)Cc2cc(-c3cccnc3)no2)NC1=O (stereo not drawn)	3.028	9.507	-4.283
COCc1cc(CNCc2c(C)n(CC(C)C)c3ccccc23)n[nH]1	21.66	11.75	48.01
O=c1cc2c(nn1CN1CCN(c3ccccc3)CC1)CCC2	3.084	17.84	-
Cc1cccnc1NCCNC(=O)C1CCN(C(=O)N(C)C)CC1	-24.55	-	-
O=C(CC1CC1)N1CCCC2(CCC(=O)N2CC2CC2)CC1 (stereo not drawn)	-7.128	-18.91	21.38
CC(SCC(=O)N(C)CC(=O)NC1CC1)c1ccccc1F (stereo not drawn)	-4.66	9.254	10.8
CC(NC(=O)NCc1ccccn1)c1ccc2c(c1)CCC(=O)N2 (stereo not drawn)	-4.651	17.61	-
O=C(O)C(F)(F)F.[H][C@@]12CN(Cc3ccccc3)C[C@]1([H])C(=O)N(c1cncnc1)C2	-2.93	-	1.212
CCCc1cncnc1N1CCCC2(CCC(=O)N(C3CCCC3)C2)C1 (stereo not drawn)	-29.38	11.04	-5.629
CN1CC(=O)N(c2cccc(F)c2)CC12CCN(S(=O)(=O)C1CC1)C2.O=C(O)C(F)(F)F (stereo not drawn)	1.332	-	-19.62
Cc1cc(CNS(=O)(=O)CCCC#N)ccc1N(C)C	29.24	13.33	9.874
CC(C)N1CCC2(CCCN(C(=O)c3cncn3C)C2)CC1	-	13.04	-
COc1nc2ccccc2cc1CN1CCC(CNS(C)(=O)=O)C1 (stereo not drawn)	9.066	14.29	14.35

The first 3 entries again:

compound,A,B,C
CN1CCCN(c2nccc(-c3c[nH]c4ccc(Br)cc34)n2)CC1,19.92,16.26,8.461
CCOCCCNC(=O)c1cc(C)nc(N2CCCC2)n1,-2.167,9.544,-
O=C(O)C(F)(F)F.[H][C@]12CCCN(Cc3ccc(OC)cc3)[C@@]1([H])CN(C(=O)c1ccco1)C2,-5.706,-,-23.12

Source: ChEMBL document CHEMBL3988442, “University of Dundee, Small-Polar-MMV Screening Library” (2021).